These are yes or no findings as the source states them, for the method shown. In cells and extracts the contact can be indirect. These calls come from enrichment with a bait or labelling near it, and not all partners need be listed.
B1: Psmd1 (protein, UniProt O88761 1-953)
chain: MITSAAGIISLLDEEEPQLKEFALHKLNAVVNDFWAEISESVDKIEVLYEDEGFRSRQFAALVASKVFYHLGAFEESLNYALGAGDLFNVNDNSEYVETIIAKCIDHYTKQCVENADLPEGEKKPIDQRLEGIVNKMFQRCLDDHKYKQAIGIALETRRLDVFEKTILESNDVPGMLAYSLKLCMSLMQNKQFRNKVLRVLVKIYMNLEKPDFINVCQCLIFLDDTQAVSDILEKLVKEDNLLMAYQICFDLYESASQQFLSSVIQNLRTVGTPIASVPGSTNTGTVPGPEKDSDSMETEEKTAGAVAGKTPDASPEPKDQTLKMIKILSGEMAIELHLQFLIRNNNTDLMILKNTKDAVRNSVCHTATVIANSFMHCGTTSDQFLRDNLEWLARATNWAKFTATASLGVIHKGHEKEALQLMATYLPKDTSPGSAYQEGGGLYALGLIHANHGGDIIDYLLNQLKNASNDIVRHGGSLGLGLAAMGTARQDVYDLLKTNLYQDDAVTGEAAGLALGLVMLGSKNTQAIEDMVGYAQETQHEKILRGLAVGIALVMYGRMEEADALIESLCRDKDPILRRSGMYTVAMAYCGSGNNKAIRRLLHVAVSDVNDDVRRAAVESLGFILFRTPEQCPSVVSLLSESYNPHVRYGAAMALGVCCAGTGNKEAINLLEPMTNDPVNYVRQGALIASALIMIQQTEITCPKVNQFRQLYSKVINDKHDDVMAKFGAILAQGILDAGGHNVTISLQSRTGHTHMPSVVGVLVFTQFWFWFPLSHFLSLAYTPTCIIGLNKDLKMPKVQYKSNCKPSTFAYPAPLEVPKEKEKEKVSTAVLSITAKAKKKEKEKEKKEEEKMEVDEAEKKEEKEKKKEPEPNFQLLDNPARVMPAQLKVLSMTETCRYQPFKPLSIGGIIILKDTSEDIEELVEPVAAHGPKIEEEEQEPEPPEPFEYIDD
B2: Atp2c1 (protein, UniProt Q64566 1-919)
chain: MKVARFQKIPNVENETMIPVLTSKRASELAVSEVAGLLQADLQNGLNKSEVSHRRAFHGWNEFDISEDEPLWKKYISQFKNPLIMLLLASAVISVLMRQFDDAVSITVAILIVVTVAFVQEYRSEKSLEELSKLVPPECHCVREGKLEHTLARDLVPGDTVCLSVGDRVPADLRLFEAVDLSIDESSLTGETTPCSKVTAPQPAATNGDLASRSNIAFMGTLVRCGKAKGIVIGTGENSEFGEVFKMMQAEEAPKTPLQKSMDLLGKQLSFYSFGIIGIIMLVGWLLGKDILEMFTISVSLAVAAIPEGLPIVVTVTLALGVMRMVKKRAIVKKLPIVETLGCCNVICSDKTGTLTKNEMTVTHILTSDGLHAEVTGVGYNQFGEVIVDGDVVHGFYNPAVSRIVEAGCVCNDAVIRNNTLMGKPTEGALIALAMKMGLDGLQQDYIRKAEYPFSSEQKWMAVKCVHRTQQDRPEICFMKGAYEQVIKYCTTYNSKGQTLALTQQQRDLYQQEKAQMGSAGLRVLALASGPDLGQLTLLGLVGIIDPPRTGVKEAVTTLIASGVSIKMITGDSQETAIAIASRLGLYSKTSQSVSGEEVDTMEVQHLSQIVPKVAVFYRASPRHKMKIIKSLQKNGSVVAMTGDGVNDAVALKAADIGVAMGQTGTDVCKEAADMILVDDDFQTIMSAIEEGKGIYNNIKNFVRFQLSTSIAALTLISLATLMNFPNPLNAMQILWINIIMDGPPAQSLGVEPVDKDVIRKPPRNWKDSILTKNLILKILVSSIIIVCGTLFVFWRELRDNVITPRDTTMTFTCFVFFDMFNALSSRSQTKSVFEIGLCSNKMFCYAVLGSIMGQLLVIYFPPLQKVFQTESLSILDLLFLLGLTSSVCIVSEIIKKVERSREKTQKNTTSTPSSFLEV
B3: Marcks (protein, UniProt P30009 1-309)
chain: MGAQFSKTAAKGEAAAERPGEAAVASSPSKANGQENGHVKVNGDASPAAAEPGAKEELQANGSAPAADKEEPASGGAATPAAADKDEAAAAPEPGAATADKEAAEAEPAEPGSPSAETEGASASSTSSPKAEDGAAPSPSSETPKKKKKRFSFKKSFKLSGFSFKKSKKEAGEGAEAEGATADGAKDEAAAAAGGDAAAAPGEQAGGAGAEGAEGGESREAEAAEPEQPEQPEQPAAEEPRAEEPSEAVGEKAEEPAPGATADDAPSAAGPEQEAPAATDEPAASAAPSASPEPQPECSPEAPPAPVAE
B4: Nefl (protein, UniProt P19527 1-542)
chain: MSSFSYEPYFSTSYKRRYVETPRVHISSVRSGYSTARSAYSSYSAPVSSSLSVRRSYSSSSGSLMPSLENLDLSQVAAISNDLKSIRTQEKAQLQDLNDRFASFIERVHELEQQNKVLEAELLVLRQKHSEPSRFRALYEQEIRDLRLAAEDATNEKQALQGEREGLEETLRNLQARYEEEVLSREDAEGRLMEARKGADEAALARAELEKRIDSLMDEIAFLKKVHEEEIAELQAQIQYAQISVEMDVSSKPDLSAALKDIRAQYEKLAAKNMQNAEEWFKSRFTVLTESAAKNTDAVRAAKDEVSESRRLLKAKTLEIEACRGMNEALEKQLQELEDKQNADISAMQDTINKLENELRSTKSEMARYLKEYQDLLNVKMALDIEIAAYRKLLEGEETRLSFTSVGSITSGYSQSSQVFGRSAYSGLQSSSYLMSARAFPAYYTSHVQEEQSEVEETIEATKAEEAKDEPPSEGEAEEEEKEKEEGEEEEGAEEEEAAKDESEDAKEEEGGEGEEEDTKESEEEEKKEESAGEEQAAKKKD
B5: Taok1 (protein, UniProt O88664 1-1001)
chain: MPSTNRAGSLKDPEIAELFFKEDPEKLFTDLREIGHGSFGAVYFARDVRTNEVVAIKKMSYSGKQSTEKWQDIIKEVKFLQRIKHPNSIEYKGCYLREHTAWLVMEYCLGSASDLLEVHKKPLQEVEIAAITHGALQGLAYLHSHTMIHRDIKAGNILLTEPGQVKLADFGSASMASPANSFVGTPYWMAPEVILAMDEGQYDGKVDVWSLGITCIELAERKPPLFNMNAMSALYHIAQNESPTLQSNEWSDYFRNFVDSCLQKIPQDRPTSEELLKHMFVLRERPETVLIDLIQRTKDAVRELDNLQYRKMKKLLFQEAHNGPAVEAQEEEEEQDHGGGRTGTVNSVGSNQSIPSMSISASSQSSSVNSLPDASDDKSELDMMEGDHTVMSNSSVIHLKPEEENYQEEGDPRTRASAPQSPPQVSRHKSHYRNREHFATIRTASLVTRQMQEHEQDSELREQMSGYKRMRRQHQKQLMTLENKLKAEMDEHRLRLDKDLETQRNNFAAEMEKLIKKHQASMEKEAKVMANEEKKFQQHIQAQQKKELNSFLESQKREYKLRKEQLKEELNENQSTPKKEKQEWLSKQKENIQHFQAEEEANLLRRQRQYLELECRRFKRRMLLGRHNLEQDLVREELNKRQTQKDLEHAMLLRQHESMQELEFRHLNTIQKMRCELIRLQHQTELTNQLEYNKRRERELRRKHVMEVRQQPKSLKSKELQIKKQFQDTCKIQTRQYKALRNHLLETTPKSEHKAVLKRLKEEQTRKLAILAEQYDHSINEMLSTQALRLDEAQEAECQVLKMQLQQELELLNAYQSKIKMQAEAQHDRELRELEQRVSLRRALLEQKIEEEMLALQNERTERIRSLLERQAREIEAFDSESMRLGFSNMVLSNLSPEAFSHSYPGASSWSHNPTGGSGPHWGHPMGGTPQAWGHPMQGGPQPWGHPSGPMQGVPRGSSIGVRNSPQALRRTASGGRTEQGMSRSTSVTSQISNGSHMSYT
B6: Dnajc16 (protein, UniProt Q5FVM7 26-771)
chain: LDFDPYRVLGVSRTASQADIKKAYKKLAREWHPDKNKDPGAEDKFIQISKAYEILSNEEKRTNYDHYGDAGENQGYQQQREYRFRHFHENFYFDESFFHFPFNSERRDSIDEKYLLHFSHYVNEVVPDSFKKPYLIKITSDWCFSCIHIEPIWKEVVQELEGLGVGIGVVHAGYERRLAHHLGAHSTPSILGIINGKISFFHNAVVHENLRQFVESLLPGNLVEKVTNKNYVRFLSGWQQENKPHALLFGQTPAAPLLYKLTAFAYKDYVSFGYVYVGLRGVEEMTRQYNVNIYAPTMLIFKEHINKPADAIQARGLKKQVIEDFITQNKYLLASRLTSQKLFHELCPVKRSHRQRKYCVVLLTAEANKLSKPFDAFLSFALANTQDTVRFVHVYSSRQQEFASTLLPDIEAFQGKSGVSILERRNTAGRVVFKTLEDPWTGSESDKFVLLGYLDQLRKDPAFLSSEAVLPDLTDELAPVFLLRWLYSVSDYLSDFWESLLHSNWREMMPLLSLIFSALFILFGTVIVQAFSDSNEERESHPPDKEEVPEKAGKTEPSFTKESSSKIPKKGFVEVTELTDVTYTSNLVRLRPGHMNVVLILSNSTKTSLLQKFALEVYTFTGSSSLHFSFLTLDKHREWLEYLLEFAQDAAPIPNQYDKHFMERDYTGYVLALNGHKKYFCLFKPLKTVDEETVGSCDLDSSRGKPPCGLGPKPLKGKLSKLSLWMERLLEGSLQRFYIPSWPELD
B7: Camkv (protein, UniProt Q63092 1-504)
chain: MPFGCVTLGDKKNYNQPSEVTDRYDLGQVVKTEEFCEIFRAKDKTTGKLHTCKKFQKRDGRKVRKAAKNEIGILKMVKHPNILQLVDVFVTRKEYFIFLELATGREVFDWILDQGYYSERDTSNVVRQVLEAVAYLHSLKIVHRNLKLENLVYYNRLKNSKIVISDFHLAKLENGLIKEPCGTPEYLAPEVVGRQRYGRPVDCWAIGVIMYILLSGNPPFYEEVEEDDYENHDKNLFRKILAGDYEFDSPYWDDISQAAKDLVTRLMEVEQDQRITAEEAISHEWISGNAASDKNIKDGVCAQIEKNFARAKWKKAVRVTTLMKRLRAPEQSGTAATSDAATPGAAGGAVAAAAGGAAPASGASATVGTGGDAGCAAKSDDMASADRSATPATDGSATPATDGSVTPATDGSITPATDGSVTPATDRSATPATDGRATPATEESTVPAAQSSAAPAAKAAATPEPAVAQPDSTALEGATGQAPPSSKGEEATGCAQESQRVETS
B8: Trim67 (protein, UniProt D3ZTX1 1-772)
chain: MEEELKCPVCGSLFREPIILPCSHNVCLPCARTIAVQTPDGEQHLPPPLLLSRGAAAAAAAPPPDQDAAAGATCGGAGASTAGGLGGGAAGGGDHADKLSLYSETDSGYGSYTPSLKSPNGVRVLPMVPAPPGSSAAAARGAACSSLCSSSSSITCPQCHRSASLDHRGLRGFQRNRLLEGIVQRYQQGRGVAAGASAAPAVAICQLCDRTPPEPAATLCEQCDVLYCATCQLKCHPSRGPFAKHRLVQPPPPPAPPEATSASVGTSTASSAGGCRSPGGAGAPVPRKFPTCPEHEMENYSMYCVSCRSPVCYMCLEEGRHGKHEVKPLGATWKQHKAQLSQALNGVSDKAKEAKEFLVQLKNILQQIQENGLDYEACLVAQCDALVDALTRQKAKLLTKVTKEREQKLKMVWDQINHCTLKLRQSTGLMEYCLEVIKEDDPSGFLQISDALIKRVQTSQEQWVKGALEPKVSAEFDLTLDSEPLLQAIHQLDFVQMKCRVPPVPLLQLEKCCTRNNSATLAWRTPPFTHSPADGYILELDDGDGGQFREVYVGKETLCTIDGLHFNSTYNARVKAFNSSGVGPYSKTVVLQTSDVAWFTFDPNSGHRDIILSNDNQTATCSSYDDRVVLGTAAFSKGAHYWELHVDRYDNHPDPAFGVARASVVKDMMLGKDDKAWAMYVDNNRSWFMHCNSHTNRTEGGVCKGATVGVLLDLNKHTLTFFINGQQQGPTAFSHVDGVFMPALSLNRNVQVTLHTGLEVPTNLGRPKLSGN

Amino acid sequences for entries named in this document (tags omitted).
UniProt Q9NZV8: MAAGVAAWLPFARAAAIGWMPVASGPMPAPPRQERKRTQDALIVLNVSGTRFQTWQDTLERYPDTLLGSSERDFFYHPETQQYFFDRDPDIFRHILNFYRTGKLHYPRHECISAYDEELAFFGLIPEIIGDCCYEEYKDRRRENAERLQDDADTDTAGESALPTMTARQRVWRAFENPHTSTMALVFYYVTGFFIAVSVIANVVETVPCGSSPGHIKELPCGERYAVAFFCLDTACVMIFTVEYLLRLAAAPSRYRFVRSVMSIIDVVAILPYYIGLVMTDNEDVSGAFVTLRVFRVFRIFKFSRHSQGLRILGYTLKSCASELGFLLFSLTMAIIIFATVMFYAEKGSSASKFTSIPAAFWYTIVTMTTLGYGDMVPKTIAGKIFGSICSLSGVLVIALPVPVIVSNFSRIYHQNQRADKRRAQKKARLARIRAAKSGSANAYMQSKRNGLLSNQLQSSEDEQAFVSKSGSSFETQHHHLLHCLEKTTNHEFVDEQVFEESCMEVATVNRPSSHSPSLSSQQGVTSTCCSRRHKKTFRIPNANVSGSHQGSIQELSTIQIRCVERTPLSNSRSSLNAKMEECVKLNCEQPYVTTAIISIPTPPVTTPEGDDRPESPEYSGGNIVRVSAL

Target: TAP-Kv4.2 (human) (UniProt Q9NZV8)
Assay: affinity purification with mass spectrometry; TAP-Kv4.2 expressed by lentivirus in rat hippocampal neurons, harvested at DIV14; weak lysis buffer of the kit (0.1% NP-40); streptavidin resin, then calmodulin resin; gel cut into high and low molecular weight fragments; no MS of the control sample

| Binder | binding |
| --- | --- |
| B1 | binds |
| B2 | binds |
| B3 | binds |
| B4 | binds |
| B5 | binds |
| B6 | binds |
| B7 | binds |
| B8 | binds |

— article PMC9788671
